Measured values: article PMC8278493
Results are given in words; binding and its absence hold for the method and conditions named. Where a sequence is shown, tags or fusion partners need not be part of it.

Biological target: T1, S. cerevisiae GST-Tel2p (S. cerevisiae) (UniProt P53038)
T1 sequence: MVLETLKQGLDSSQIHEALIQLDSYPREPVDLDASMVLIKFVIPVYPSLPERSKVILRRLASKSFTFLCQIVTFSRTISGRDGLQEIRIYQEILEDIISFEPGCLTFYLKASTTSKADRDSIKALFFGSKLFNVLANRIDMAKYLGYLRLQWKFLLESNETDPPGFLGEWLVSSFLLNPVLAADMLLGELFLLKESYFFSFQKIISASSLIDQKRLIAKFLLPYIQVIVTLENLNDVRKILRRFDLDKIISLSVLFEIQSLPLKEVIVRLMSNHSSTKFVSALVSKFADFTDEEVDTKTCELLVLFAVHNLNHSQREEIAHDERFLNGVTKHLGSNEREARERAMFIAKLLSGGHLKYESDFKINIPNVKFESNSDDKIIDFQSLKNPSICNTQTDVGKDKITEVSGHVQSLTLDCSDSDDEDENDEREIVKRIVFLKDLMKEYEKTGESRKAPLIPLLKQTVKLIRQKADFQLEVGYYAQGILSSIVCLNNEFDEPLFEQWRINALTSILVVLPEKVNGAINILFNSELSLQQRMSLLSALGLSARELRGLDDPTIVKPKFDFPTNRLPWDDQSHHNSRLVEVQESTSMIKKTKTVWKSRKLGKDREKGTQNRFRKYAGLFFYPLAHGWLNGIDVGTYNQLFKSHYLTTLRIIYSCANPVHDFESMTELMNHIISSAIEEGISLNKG
Assay: pull-down; GST beads hold yeast Tti1p-GST-Tti2p or GST-Tel2p; purified KmTOR-KmLst8; Coomassie-stained SDS-PAGE; both purified

“Kluyveromyces marxianus TOR1-Lst8 complex” was tested, and the binding was “no binding”.
